From PMC8629390
No constants are given. Whether binding was seen depends on the method and setting. Binding seen in cells or lysates may run through a third protein. Some binding calls cover weakened binding; strength is not graded here. For some assays here: Sequences can lack the tags named with a protein.

Sequences of proteins named here, by UniProt entry; tags and fusion partners are left off.
UniProt P46100: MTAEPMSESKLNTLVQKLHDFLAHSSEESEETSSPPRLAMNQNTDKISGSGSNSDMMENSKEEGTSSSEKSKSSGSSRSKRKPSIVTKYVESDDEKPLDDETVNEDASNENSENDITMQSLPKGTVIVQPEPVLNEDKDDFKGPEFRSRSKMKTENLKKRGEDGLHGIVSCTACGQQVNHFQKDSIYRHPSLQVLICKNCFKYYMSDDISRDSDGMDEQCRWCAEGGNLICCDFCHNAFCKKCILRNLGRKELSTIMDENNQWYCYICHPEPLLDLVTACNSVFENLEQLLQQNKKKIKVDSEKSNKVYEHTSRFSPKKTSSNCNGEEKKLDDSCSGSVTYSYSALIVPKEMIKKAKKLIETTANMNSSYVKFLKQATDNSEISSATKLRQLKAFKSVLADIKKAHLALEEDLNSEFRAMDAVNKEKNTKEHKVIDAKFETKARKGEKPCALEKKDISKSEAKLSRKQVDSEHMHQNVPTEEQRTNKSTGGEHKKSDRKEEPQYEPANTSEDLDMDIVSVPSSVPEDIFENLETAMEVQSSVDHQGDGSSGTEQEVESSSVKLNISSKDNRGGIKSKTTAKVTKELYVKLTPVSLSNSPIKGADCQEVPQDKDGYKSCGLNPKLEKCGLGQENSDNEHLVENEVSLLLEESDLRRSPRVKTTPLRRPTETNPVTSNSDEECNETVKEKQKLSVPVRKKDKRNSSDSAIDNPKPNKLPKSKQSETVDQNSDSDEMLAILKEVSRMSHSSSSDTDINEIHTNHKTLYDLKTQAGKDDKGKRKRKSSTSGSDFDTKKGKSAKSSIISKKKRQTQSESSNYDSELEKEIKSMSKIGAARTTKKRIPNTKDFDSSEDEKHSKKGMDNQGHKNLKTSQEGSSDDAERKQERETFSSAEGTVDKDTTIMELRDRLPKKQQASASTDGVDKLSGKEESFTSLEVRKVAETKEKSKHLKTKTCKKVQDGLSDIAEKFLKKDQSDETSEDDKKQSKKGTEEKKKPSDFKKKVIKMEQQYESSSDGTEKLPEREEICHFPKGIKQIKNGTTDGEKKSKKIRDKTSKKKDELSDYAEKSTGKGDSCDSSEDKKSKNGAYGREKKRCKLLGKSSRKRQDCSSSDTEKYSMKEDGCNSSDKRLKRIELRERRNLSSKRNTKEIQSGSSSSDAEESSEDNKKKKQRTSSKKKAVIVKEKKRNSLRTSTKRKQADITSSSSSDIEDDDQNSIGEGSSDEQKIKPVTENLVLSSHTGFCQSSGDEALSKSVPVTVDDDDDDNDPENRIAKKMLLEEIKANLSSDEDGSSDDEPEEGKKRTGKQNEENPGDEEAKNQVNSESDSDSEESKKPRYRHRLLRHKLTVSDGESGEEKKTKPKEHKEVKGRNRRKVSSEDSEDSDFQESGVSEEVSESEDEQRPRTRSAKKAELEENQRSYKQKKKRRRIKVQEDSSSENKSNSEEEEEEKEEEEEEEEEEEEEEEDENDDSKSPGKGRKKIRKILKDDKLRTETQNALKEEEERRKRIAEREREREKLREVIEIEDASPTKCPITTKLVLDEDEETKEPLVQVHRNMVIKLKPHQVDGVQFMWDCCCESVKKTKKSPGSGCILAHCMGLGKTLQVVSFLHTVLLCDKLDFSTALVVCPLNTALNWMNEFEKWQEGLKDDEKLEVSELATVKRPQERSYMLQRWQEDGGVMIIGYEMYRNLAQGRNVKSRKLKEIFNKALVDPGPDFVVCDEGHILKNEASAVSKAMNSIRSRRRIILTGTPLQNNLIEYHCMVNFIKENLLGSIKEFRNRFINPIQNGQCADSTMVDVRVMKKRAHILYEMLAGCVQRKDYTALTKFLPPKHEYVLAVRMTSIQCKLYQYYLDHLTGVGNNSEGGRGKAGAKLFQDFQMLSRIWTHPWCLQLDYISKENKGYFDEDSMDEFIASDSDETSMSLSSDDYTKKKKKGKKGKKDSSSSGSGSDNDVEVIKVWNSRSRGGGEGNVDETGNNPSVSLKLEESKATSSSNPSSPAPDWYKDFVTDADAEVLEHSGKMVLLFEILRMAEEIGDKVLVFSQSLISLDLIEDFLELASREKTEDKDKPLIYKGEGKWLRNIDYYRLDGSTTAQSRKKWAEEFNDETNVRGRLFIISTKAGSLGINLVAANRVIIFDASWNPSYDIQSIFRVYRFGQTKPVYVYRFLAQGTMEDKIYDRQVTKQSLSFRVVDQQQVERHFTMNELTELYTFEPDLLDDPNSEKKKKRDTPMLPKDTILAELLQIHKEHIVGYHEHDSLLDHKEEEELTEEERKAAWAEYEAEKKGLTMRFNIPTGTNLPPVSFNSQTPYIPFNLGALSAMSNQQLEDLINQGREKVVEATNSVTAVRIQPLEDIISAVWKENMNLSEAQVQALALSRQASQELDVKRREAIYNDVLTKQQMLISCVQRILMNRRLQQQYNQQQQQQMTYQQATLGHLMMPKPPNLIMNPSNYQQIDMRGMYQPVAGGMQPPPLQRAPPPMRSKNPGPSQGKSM
UniProt Q8IV32: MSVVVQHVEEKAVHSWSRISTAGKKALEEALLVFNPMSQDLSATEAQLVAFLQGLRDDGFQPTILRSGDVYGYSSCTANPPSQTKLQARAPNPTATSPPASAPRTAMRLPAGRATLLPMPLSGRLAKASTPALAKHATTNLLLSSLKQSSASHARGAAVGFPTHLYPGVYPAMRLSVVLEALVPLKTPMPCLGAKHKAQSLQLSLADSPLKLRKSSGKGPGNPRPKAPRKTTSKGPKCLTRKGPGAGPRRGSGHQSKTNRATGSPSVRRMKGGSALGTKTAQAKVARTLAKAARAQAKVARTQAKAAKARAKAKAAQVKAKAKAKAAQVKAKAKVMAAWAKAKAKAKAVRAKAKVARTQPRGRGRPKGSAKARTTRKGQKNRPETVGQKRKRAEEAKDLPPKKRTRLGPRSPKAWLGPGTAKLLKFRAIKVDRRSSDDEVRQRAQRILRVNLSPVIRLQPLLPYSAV
UniProt Q86UP3: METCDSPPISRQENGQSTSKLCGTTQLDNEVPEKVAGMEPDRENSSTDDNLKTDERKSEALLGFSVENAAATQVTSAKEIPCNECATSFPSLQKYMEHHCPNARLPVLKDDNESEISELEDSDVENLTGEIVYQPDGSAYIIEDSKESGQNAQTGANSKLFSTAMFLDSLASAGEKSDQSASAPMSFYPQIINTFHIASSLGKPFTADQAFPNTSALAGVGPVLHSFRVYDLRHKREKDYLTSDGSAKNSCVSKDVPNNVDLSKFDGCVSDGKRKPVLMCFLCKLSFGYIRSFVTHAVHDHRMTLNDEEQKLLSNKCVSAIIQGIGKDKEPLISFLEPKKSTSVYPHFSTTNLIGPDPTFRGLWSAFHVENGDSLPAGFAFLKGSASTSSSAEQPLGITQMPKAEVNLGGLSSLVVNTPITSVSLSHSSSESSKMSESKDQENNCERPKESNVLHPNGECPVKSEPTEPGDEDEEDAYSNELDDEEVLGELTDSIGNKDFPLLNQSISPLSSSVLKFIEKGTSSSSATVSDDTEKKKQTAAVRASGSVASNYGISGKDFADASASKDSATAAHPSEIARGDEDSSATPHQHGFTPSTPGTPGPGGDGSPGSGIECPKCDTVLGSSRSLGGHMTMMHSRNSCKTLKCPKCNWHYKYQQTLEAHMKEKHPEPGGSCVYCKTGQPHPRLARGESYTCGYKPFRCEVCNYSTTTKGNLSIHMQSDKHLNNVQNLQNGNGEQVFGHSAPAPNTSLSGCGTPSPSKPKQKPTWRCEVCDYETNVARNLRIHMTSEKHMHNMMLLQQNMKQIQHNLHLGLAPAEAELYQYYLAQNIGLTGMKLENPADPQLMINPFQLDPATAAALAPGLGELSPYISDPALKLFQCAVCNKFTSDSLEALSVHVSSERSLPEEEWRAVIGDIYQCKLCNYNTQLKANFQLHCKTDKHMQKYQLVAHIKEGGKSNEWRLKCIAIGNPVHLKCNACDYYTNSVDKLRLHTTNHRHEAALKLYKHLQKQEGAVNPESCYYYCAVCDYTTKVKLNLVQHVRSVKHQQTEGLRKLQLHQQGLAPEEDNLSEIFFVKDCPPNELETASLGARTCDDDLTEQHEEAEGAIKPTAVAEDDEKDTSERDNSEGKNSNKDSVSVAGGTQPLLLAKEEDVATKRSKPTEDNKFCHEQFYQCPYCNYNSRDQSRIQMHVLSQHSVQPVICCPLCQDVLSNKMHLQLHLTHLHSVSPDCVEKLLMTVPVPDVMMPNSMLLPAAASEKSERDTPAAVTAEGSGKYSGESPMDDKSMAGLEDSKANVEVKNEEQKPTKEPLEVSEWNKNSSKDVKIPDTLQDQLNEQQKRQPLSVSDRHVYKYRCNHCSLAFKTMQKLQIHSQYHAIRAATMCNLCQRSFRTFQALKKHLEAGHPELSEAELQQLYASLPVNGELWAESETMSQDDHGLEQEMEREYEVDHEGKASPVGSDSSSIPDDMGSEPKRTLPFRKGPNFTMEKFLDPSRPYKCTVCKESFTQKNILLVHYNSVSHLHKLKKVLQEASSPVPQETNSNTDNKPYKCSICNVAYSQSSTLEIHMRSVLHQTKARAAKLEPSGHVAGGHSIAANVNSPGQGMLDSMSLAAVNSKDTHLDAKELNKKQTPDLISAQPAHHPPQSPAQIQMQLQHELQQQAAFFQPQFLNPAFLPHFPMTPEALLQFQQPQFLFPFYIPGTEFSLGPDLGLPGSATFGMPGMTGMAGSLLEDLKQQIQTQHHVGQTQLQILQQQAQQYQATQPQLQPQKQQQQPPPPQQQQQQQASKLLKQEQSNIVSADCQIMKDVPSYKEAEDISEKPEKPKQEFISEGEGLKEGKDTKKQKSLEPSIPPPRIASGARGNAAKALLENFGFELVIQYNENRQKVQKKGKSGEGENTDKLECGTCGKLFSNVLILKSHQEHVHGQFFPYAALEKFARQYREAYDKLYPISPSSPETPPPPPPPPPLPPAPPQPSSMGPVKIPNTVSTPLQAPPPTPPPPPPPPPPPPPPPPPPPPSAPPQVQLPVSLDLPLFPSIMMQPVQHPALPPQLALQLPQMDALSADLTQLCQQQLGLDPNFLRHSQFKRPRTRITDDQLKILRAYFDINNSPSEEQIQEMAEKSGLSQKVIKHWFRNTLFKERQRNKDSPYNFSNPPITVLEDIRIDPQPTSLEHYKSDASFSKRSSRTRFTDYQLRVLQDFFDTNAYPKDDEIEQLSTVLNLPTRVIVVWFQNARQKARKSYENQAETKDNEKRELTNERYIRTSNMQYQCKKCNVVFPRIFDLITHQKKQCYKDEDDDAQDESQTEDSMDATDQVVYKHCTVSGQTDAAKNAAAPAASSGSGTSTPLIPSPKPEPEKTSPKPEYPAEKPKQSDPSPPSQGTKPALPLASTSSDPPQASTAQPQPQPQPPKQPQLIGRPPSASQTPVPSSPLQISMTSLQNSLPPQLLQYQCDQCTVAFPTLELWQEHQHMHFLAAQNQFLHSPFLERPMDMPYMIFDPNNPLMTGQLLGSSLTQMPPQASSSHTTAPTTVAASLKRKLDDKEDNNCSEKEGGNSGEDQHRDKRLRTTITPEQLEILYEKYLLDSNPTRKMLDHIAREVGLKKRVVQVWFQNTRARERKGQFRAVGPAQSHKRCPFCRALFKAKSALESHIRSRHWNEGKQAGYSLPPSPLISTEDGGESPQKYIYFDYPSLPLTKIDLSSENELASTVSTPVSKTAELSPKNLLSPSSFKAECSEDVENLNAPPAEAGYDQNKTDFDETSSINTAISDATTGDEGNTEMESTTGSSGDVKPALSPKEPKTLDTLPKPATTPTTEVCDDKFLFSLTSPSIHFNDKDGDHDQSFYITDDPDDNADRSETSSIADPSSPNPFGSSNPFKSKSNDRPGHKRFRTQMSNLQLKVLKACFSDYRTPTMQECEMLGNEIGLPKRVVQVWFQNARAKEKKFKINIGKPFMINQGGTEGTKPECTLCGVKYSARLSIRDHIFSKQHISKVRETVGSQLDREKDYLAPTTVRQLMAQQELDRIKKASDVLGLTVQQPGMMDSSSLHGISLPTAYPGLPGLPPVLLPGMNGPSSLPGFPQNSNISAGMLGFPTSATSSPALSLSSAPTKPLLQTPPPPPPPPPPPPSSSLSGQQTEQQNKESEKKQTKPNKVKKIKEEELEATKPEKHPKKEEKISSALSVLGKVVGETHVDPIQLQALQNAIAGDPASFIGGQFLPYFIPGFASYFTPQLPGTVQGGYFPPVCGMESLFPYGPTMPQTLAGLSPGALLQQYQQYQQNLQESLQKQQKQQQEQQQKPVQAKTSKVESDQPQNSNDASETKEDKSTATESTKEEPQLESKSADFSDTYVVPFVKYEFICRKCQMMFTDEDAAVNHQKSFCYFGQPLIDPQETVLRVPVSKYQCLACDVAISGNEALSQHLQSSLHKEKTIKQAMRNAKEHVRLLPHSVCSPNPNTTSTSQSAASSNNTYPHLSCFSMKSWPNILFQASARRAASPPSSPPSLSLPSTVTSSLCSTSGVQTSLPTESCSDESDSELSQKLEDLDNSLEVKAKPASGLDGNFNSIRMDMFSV

Tests used:
[1] = biological target: ATRX (endogenous) (human (endogenous in MO3.13 and HEK293 Flp-In T-REx)) (UniProt P46100); assay: proximity ligation; PLA (Duolink) between endogenous ATRX and endogenous proteins in fixed MO3.13 human glial cells; any one protein probed alone as control
[2] = biological target: T1, Recombinant FAM207A (in vitro translated, with biotinylated lysine) (UniProt Q9NSI2); assay: pull-down; in vitro translated FAM207A with biotinylated lysine held on Strep-Tactin (streptavidin) resin in BC150, 20 pmol recombinant ATRX added, 1 hr at room temperature, washes with BC150 + 0.1% NP40, BC300 + 0.1% NP40 and BC150; western blot; only the binder purified
T1 sequence (chain, biotinylated lysine (incorporated during translation)): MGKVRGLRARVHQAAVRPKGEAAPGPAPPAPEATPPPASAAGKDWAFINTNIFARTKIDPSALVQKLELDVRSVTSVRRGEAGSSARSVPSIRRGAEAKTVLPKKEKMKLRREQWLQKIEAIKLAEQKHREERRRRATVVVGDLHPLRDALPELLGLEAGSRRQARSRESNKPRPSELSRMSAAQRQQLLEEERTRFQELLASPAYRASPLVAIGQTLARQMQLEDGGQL

[3] = biological target: ATRX (endogenous) (human (endogenous in MO3.13 and HEK293 Flp-In T-REx)) (UniProt P46100); assay: proximity ligation; PLA (Duolink) between endogenous ATRX and tagged, exogenous proteins (FLAG-CCDC71 and FLAG-FAM207A in HEK293 Flp-In T-REx cells; myc-SLF2)
FLAG-CCDC71 (exogenous) = FLAG-CCDC71 (exogenous) (UniProt Q8IV32); assay: co-IP; anti-FLAG immunoprecipitation of exogenous CCDC71 from doxycycline-induced cells; lysate sonicated and MNase-digested; Protein G magnetic beads; western blot

CCDC71 (endogenous) (from UniProt Q8IV32 1-467)
binding [1]: binds

FLAG-ATRX (recombinant, SF9 insect cells) (from UniProt P46100 1-2492)
binding [2]: binds

FLAG-CCDC71 (exogenous) (from UniProt Q8IV32 1-467)
binding [3]: binds

HDAC1 histone deacetylase (from UniProt Q13547 1-482)
binding (FLAG-CCDC71 (exogenous)): binds

NBS1 component of the MRN complex (from UniProt O60934 1-754)
binding [1]: binds

ZFHX4 transcription factor (from UniProt Q86UP3 1-3567)
binding [1]: binds

B1: IMP3 U3 snoRNP protein (protein, UniProt Q9NV31 1-184)
chain: MVRKLKFHEQKLLKQVDFLNWEVTDHNLHELRVLRRYRLQRREDYTRYNQLSRAVRELARRLRDLPERDQFRVRASAALLDKLYALGLVPTRGSLELCDFVTASSFCRRRLPTVLLKLRMAQHLQAAVAFVEQGHVRVGPDVVTDPAFLVTRSMEDFVTWVDSSKIKRHVLEYNEERDDFDLEA
binding [1]: binds

B2: SLF2 (SMC5/6 localization factor 2), endogenous (protein, UniProt Q8IX21 1-1173)
chain: MTRRCMPARPGFPSSPAPGSSPPRCHLRPGSTAHAAAGKRTESPGDRKQSIIDFFKPASKQDRHMLDSPQKSNIKYGGSRLSITGTEQFERKLSSPKESKPKRVPPEKSPIIEAFMKGVKEHHEDHGIHESRRPCLSLASKYLAKGTNIYVPSSYHLPKEMKSLKKKHRSPERRKSLFIHENNEKNDRDRGKTNADSKKQTTVAEADIFNNSSRSLSSRSSLSRHHPEESPLGAKFQLSLASYCRERELKRLRKEQMEQRINSENSFSEASSLSLKSSIERKYKPRQEQRKQNDIIPGKNNLSNVENGHLSRKRSSSDSWEPTSAGSKQNKFPEKRKRNSVDSDLKSTRESMIPKARESFLEKRPDGPHQKEKFIKHIALKTPGDVLRLEDISKEPSDETDGSSAGLAPSNSGNSGHHSTRNSDQIQVAGTKETKMQKPHLPLSQEKSAIKKASNLQKNKTASSTTKEKETKLPLLSRVPSAGSSLVPLNAKNCALPVSKKDKERSSSKECSGHSTESTKHKEHKAKTNKADSNVSSGKISGGPLRSEYGTPTKSPPAALEVVPCIPSPAAPSDKAPSEGESSGNSNAGSSALKRKLRGDFDSDEESLGYNLDSDEEEETLKSLEEIMALNFNQTPAATGKPPALSKGLRSQSSDYTGHVHPGTYTNTLERLVKEMEDTQRLDELQKQLQEDIRQGRGIKSPIRIGEEDSTDDEDGLLEEHKEFLKKFSVTIDAIPDHHPGEEIFNFLNSGKIFNQYTLDLRDSGFIGQSAVEKLILKSGKTDQIFLTTQGFLTSAYHYVQCPVPVLKWLFRMMSVHTDCIVSVQILSTLMEITIRNDTFSDSPVWPWIPSLSDVAAVFFNMGIDFRSLFPLENLQPDFNEDYLVSETQTTSRGKESEDSSYKPIFSTLPETNILNVVKFLGLCTSIHPEGYQDREIMLLILMLFKMSLEKQLKQIPLVDFQSLLINLMKNIRDWNTKVPELCLGINELSSHPHNLLWLVQLVPNWTSRGRQLRQCLSLVIISKLLDEKHEDVPNASNLQVSVLHRYLVQMKPSDLLKKMVLKKKAEQPDGIIDDSLHLELEKQAYYLTYILLHLVGEVSCSHSFSSGQRKHFVLLCGALEKHVKCDIREDARLFYRTKVKDLVARIHGKWQEIIQNCRPTQGQLHDFWVPDS
binding [1]: binds

B3: ZBTB4 (protein, UniProt Q9P1Z0 1-1013)
chain: MPPPAEVTDPSHAPAVLRQLNEQRLRGLFCDVTLIAGDTKFPAHRSVLAASSPFFREALLTSAPLPLPPATGGAAPNPATTTAASSSSSSSSSSSSSSSSASSSSSSSSSSPPPASPPASSPPRVLELPGVPAAAFSDVLNFIYSARLALPGGGGDGAAVAEIGALGRRLGISRLQGLGEGGDAWVPPTPAPMATSQPEEDSFGPGPRPAGEWEGDRAEAQAPDLQCSLPRRPLPCPQCGKSFIHPKRLQTHEAQCRRGASTRGSTGLGAGGAGPGGPAGVDASALPPPVGFRGGPEHVVKVVGGHVLYVCAACERSYVTLSSLKRHSNVHSWRRKYPCRYCEKVFALAEYRTKHEVWHTGERRYQCIFCWETFVTYYNLKTHQRAFHGISPGLLASEKTPNGGYKPKLNTLKLYRLLPMRAAKRPYKTYSQGAPEAPLSPTLNTPAPVAMPASPPPGPPPAPEPGPPPSVITFAHPAPSVIVHGGSSSGGGGSGTASTGGSQAASVITYTAPPRPPKKREYPPPPPEPAATPTSPATAVSPATAAGPAMATTTEEAKGRNPRAGRTLTYTAKPVGGIGGGGGPPTGAGRGPSQLQAPPPLCQITVRIGEEAIVKRRISETDLRPGELSGEEMEESEEDEEEEDEEEEEEDEEESKAGGEDQLWRPYYSYKPKRKAGAAGGASVGGSGLPRGRRPPRWRQKLERRSWEETPAAESPAGRARTERRHRCGDCAQTFTTLRKLRKHQEAHGGGSHSSRAGRRPSTRFTCPHCAKVCKTAAALSRHGQRHAAERPGGTPTPVIAYSKGSAGTRPGDVKEEAPQEMQVSSSSGEAGGGSTAAEEASETASLQDPIISGGEEPPVVASGGSYVYPPVQEFPLALIGGGREPGGGRGKSGSEGPVGAGEGDRMEGIGAAKVTFYPEPYPLVYGPQLLAAYPYNFSNLAALPVALNMVLPDEKGAGALPFLPGVFGYAVNPQAAPPAPPTPPPPTLPPPIPPKGEGERAGVERTQKGDVG
binding [1]: binds

B4: FLAG-FAM207A (exogenous) (protein, UniProt Q9NSI2 1-230)
chain: T1 sequence (chain, biotinylated lysine (incorporated during translation))
binding [3]: binds

B5: myc-tagged SLF2 (exogenous) (protein, UniProt Q8IX21 1-1173)
chain: B2 chain
binding [3]: binds
